The text below walks through data of article PMC4428482.

Assay [1] deals with CeAha1 (C01G10.8) (C. elegans (endogenous in wild-type animals)) (UniProt Q93168). Briefly: co-IP; total lysate of age-synchronized wild-type C. elegans in RIPA buffer with protease inhibitors, 4°C; anti-CeHop or anti-CeAha1 antibodies, Protein A/G PLUS-Agarose beads, three washes in RIPA buffer; western blot with anti-CeHop, anti-CeAha1, anti-CeHsp90 or anti-UNC-45 antibodies. In general terms: In western blotting, separated proteins are transferred to a membrane and probed.

Assay [2] deals with T1, CeHop (STI-1) (C. elegans (endogenous in wild-type animals)) (UniProt O16259).
T1 sequence: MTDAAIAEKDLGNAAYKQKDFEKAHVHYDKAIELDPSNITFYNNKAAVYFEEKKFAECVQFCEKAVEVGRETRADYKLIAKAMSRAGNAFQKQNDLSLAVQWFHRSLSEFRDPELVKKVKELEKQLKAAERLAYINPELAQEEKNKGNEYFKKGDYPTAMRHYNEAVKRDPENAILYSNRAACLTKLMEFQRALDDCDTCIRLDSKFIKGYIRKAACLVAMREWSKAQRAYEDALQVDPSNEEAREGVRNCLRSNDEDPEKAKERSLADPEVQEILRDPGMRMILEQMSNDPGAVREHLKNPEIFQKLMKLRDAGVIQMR
The assay is described as above.

No constants are given. Whether binding was seen depends on the method and setting. In cells and extracts the contact can be indirect. For some of these results: Binding calls can cover weak binding; strength is not graded here.

Consider “CeHsp90 (DAF-21) (from UniProt Q18688 1-702)”, for which the binding entry in assay [1] was “binds”. As for CeAha1 (C01G10.8) (from UniProt Q93168), the binding entry in assay [2] is given as “no binding”.

B1: CeHop (STI-1) (protein, UniProt O16259 1-320)
chain: MTDAAIAEKDLGNAAYKQKDFEKAHVHYDKAIELDPSNITFYNNKAAVYFEEKKFAECVQFCEKAVEVGRETRADYKLIAKAMSRAGNAFQKQNDLSLAVQWFHRSLSEFRDPELVKKVKELEKQLKAAERLAYINPELAQEEKNKGNEYFKKGDYPTAMRHYNEAVKRDPENAILYSNRAACLTKLMEFQRALDDCDTCIRLDSKFIKGYIRKAACLVAMREWSKAQRAYEDALQVDPSNEEAREGVRNCLRSNDEDPEKAKERSLADPEVQEILRDPGMRMILEQMSNDPGAVREHLKNPEIFQKLMKLRDAGVIQMR
For the molecule B1, in assay [1], the binding entry was “no binding”.

B2: UNC-45 (protein, UniProt G5EG62 1-961)
chain: MVARVQTAEEIRDEGNAAVKDQDYIKADELYTEALQLTTDEDKALRPVLYRNRAMARLKRDDFEGAQSDCTKALEFDGADVKALFRRSLAREQLGNVGPAFQDAKEALRLSPNDKGIVEVLQRLVKANNDKIKQTTSLANKVTDMEKLAFRGEAKDTEQKMTALNNLLVLCRESESGATGVWNQGALVPFVLNLINDASENEEVTVTAIRILDETIKNSVRCMKFLAMHDPDGPKSVRFVCRLMCKKSTKDFVDATGILVQRVFNAMAKMDRQKEMKPDPEVAEANKIWIIRVLLELQEMLQDPKVGAVQRETCIDLFLKNLMHMDGGIPRGWSWKFVEERGLLALLDVASQIPELCEYPVSAETRQHVAICLQRLEEDMVFDTKRTIFKEKVDMFFNALISRCTNDDEGHKYRIKLSCFLITMLQGPVDIGINLITNDQLTPIMLEMAASQDHLMQGIAAELIVATVSKHERAINMLKVGIPVLRALYDSEDPTVKVRALVGLCKIGAAGGDDISKATMKEEAVISLAKTCKKFLLETEKYSVDIRRYACEGLSYLSLDADVKEWIVDDSLLLKALVLLAKKAGALCVYTLATIYANLSNAFEKPKVDEEMVKLAQFAKHHVPETHPKDTEEYVEKRVRALVEEGAVPACVAVSKTESKNALELIARSLLAFAEYEDLRGRIIAEGGTVLCLRLTKEASGEGKIKAGHAIAKLGAKADPMISFPGQRAYEVVKPLCDLLHPDVEGKANYDSLLTLTNLASVSDSIRGRILKEKAIPKIEEFWFMTDHEHLRAAAAELLLNLLFFEKFYEETVAPGTDRLKLWVLYSAEVEEERLSRASAAGFAILTEDENACARIMDEIKSWPEVFKDIAMHEDAETQRRGLMGIANIMHSSNKLCSEIVSSEVFRVLVAVTKLGTINQERAGSTEQAKRGLEAAEKFGLIKATDREIYERENQMSTIQE
For the molecule B2, the binding result in assay [1] is recorded as “no binding”.
